Out of some 31,000 sequences screened, about 1,400 (4.5%) were called active.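 The calls were made as follows: active = median seed-adjusted z-score above 1 or below -1; inactive = the rest.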 This is one part of the list.

The test can be described thus: Novel Modifiers of Survival Motor Neuron (SMN) Protein: Gene Identification via Genome-wide siRNA Screen.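 Also: luminescence tracks full-length SMN protein made from the SMN2 reporter.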 The following applies: HEK293T SMN2-luciferase reporter, siRNA knockdown, 72 h; actives lie on both sides. The gist of the method:
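HEK293T cells stably expressing an SMN2 splicing/cDNA-luciferase reporter were reverse-transfected with a druggable-genome siRNA library and read by luminescence at 72 hours; hits defined by MAD score above 1.0 or below -1.0.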
CCACCGCAAUCCUACCAGUTT against AURKAIP1: the median seed-adjusted z-score was inactive: 0.067.
As for UCAGCACCGUGGAUAGGGATT against ANGPTL6, the median seed-adjusted z-score is inactive: 0.
With CUCUGGGAGUCACGACUUUTT against GPR37L1 the figure was inactive: -0.0348; with AGAAUGUGAUGGAGAGGAATT against RCC1, inactive: -0.165; with GGAAGGCAACUGUCAUUUUTT against ZNF461, inactive: 0.0877.
As to CGCGUUAAAUCAGGAAGCATT against HOXA1, the median seed-adjusted z-score was inactive: 0.
Regarding CAAGGUCACCAGUUGAAAATT against SCML1, the median seed-adjusted z-score was inactive: 0.575.
In the case of CCACUUCACGAUCAAAGAUTT against GAA, the median seed-adjusted z-score is inactive: 0.756.
The value for GACUUUGCGCAGUACCAGATT against SP5 was inactive: 0.105; that for GCCUUCUCCAAGUAAAUUUTT against ZNF296 was inactive: -0.00618.
With GCAGAAUGCAUAUAGAGCATT against ALKBH1 the figure was inactive: -0.087; with CUUUAACUGGGAUCACUGUTT against FOLR3, inactive: 0.
The value for GAAUCGGAGAGUGUAGAUATT against HNRNPD was inactive: 0.504; that for GAAGGAAGUGAGUCUAUAATT against PPME1 was inactive: 0.342; that for AAACAACAGGGAUUAAUGATT against ERN2 was inactive: 0.526.
Turning to GCUACUACCAAGGAUCUCATT against ARL15, the median seed-adjusted z-score is inactive: -0.944.
As for GGGUUCAACUGGAGGCAAATT against RBM15, the median seed-adjusted z-score is inactive: -0.409.
With GCCUUAUAGAUGUAUUGAATT against ZNF485, the median seed-adjusted z-score is inactive: 0.445.
The value for GGUCUUCGAGUUGUACCAATT against TG was inactive: 0.0137; that for GGAAGACUAUUGGAUAGAATT against ARHGAP18 was inactive: 0.
With GGAUGGUAAUCACAAUUGATT against XPNPEP3, the median seed-adjusted z-score is inactive: -0.282.
The value for AAACUAACAUUCGAUUGAATT against TRIM48 was inactive: 0; that for GGUCGGAUAUGUAGAUUAUTT against TDRD1 was inactive: -0.164.
With AGAAGUUUAUGAUUGUUCATT against CD5L, the median seed-adjusted z-score was inactive: 0.
The value for GGCUGUGCUGUAUCCUCAATT against SERPINI1 was inactive: 0.127; that for CCAAGAUCCUUAGCAGCAATT against NEK8 was inactive: -0.099; that for CCAUUCUUCAAAGAUUAAATT against RASSF6 was inactive: -0.592.
With GACCUGCCGUGAUAUCGUUTT against PSMA3 the figure was inactive: -0.81.
With CAUAGAAGCUGGAUGUUCATT against ROD1 the figure was inactive: 0.42; with GCAGCUGUCUAUGAUGUAATT against AGPAT3, inactive: 0.
Regarding CGAUUUGCGCAUUUCCUGGTT against FOXD4L6, the median seed-adjusted z-score is inactive: -0.137.
The value for GGUUAUACUGGAGAGCUUUTT against DNER was inactive: -0.316; that for GGGAACUUCUCGGACAUCATT against CXCR7 was inactive: -0.511.
The value for GCAUCAUCCGGGAACCUUUTT against SELP was inactive: -0.879; that for GGCUAAGACUGAUCCGUCATT against ATP5O was inactive: -0.324.
CACCCAGAAUGAGAACGGATT against FAM63B: the median seed-adjusted z-score is inactive: 0.111.
The value for GAUAGAAGAUUGUAAAGCUTT against MACF1 was inactive: -0.146; that for CAACCAGACUAUUCGGACATT against PPP1R10 was active: 1.41; that for GGUUUAAUCUUACCUAUAATT against OVCH2 was inactive: 0.439.
The value for GUAUCCUCUCGAUCACAUATT against UQCRH was inactive: 0.458.
For AAUUGUUACAGGUUGCAAATT against P4HA2, the median seed-adjusted z-score is inactive: 0.
With ACAAGACUUAUGCAAGAUATT against XRCC6BP1, the median seed-adjusted z-score was inactive: 0.128.
Take GCGAGUGGAUGAUCCAGCATT against HLA-DMA: the median seed-adjusted z-score is inactive: -0.00543.
With GCUGGAAAGUGGAACGGAATT against DUSP16 the figure was inactive: 0; with AGCGAAACAUUGUCUGGUATT against GAL3ST4, inactive: 0.248.
On to GGUACAUUCUGGAAGCACUTT against TRPT1, for which the median seed-adjusted z-score was inactive: -0.671.
Consider CCUAAGCCUUAUUAAACAATT against ZNF100, for which the median seed-adjusted z-score is inactive: -0.209.
For GAAAGGAUCUUGGAAUUCATT against SLC10A6, the median seed-adjusted z-score is inactive: -0.803.
On to GCAGAGUGCUUAUUCACUUTT against RGS3, for which the median seed-adjusted z-score is inactive: 0.065.
The value for CCAGAUAUCGACCAUAUAATT against KLF17 was inactive: -0.131.
As to GCGACUACCUGUUUCAACATT against PELO, the median seed-adjusted z-score was inactive: 0.394.
The value for GGACUUAAGCGACAACGCATT against RANGAP1 was inactive: -0.0379; that for CAAAAGCAUCUACGACGUUTT against FOXH1 was inactive: 0.
The value for GGAAUGUGUGUGAUGCCUUTT against RAB40A was inactive: 0; that for CAGUCUAACUGGAAUUACUTT against THEX1 was inactive: -0.423; that for GUGCUAAACCAAUUCCGAATT against ALOX12 was inactive: -0.247.
With GCUUUUGCAUGGAUGUGCATT against ELTD1 the figure was inactive: 0.387; with CAAGCAUCUCUGUGAAGAATT against CARD18, inactive: 0.568.
With GUAUAUUACCUCAUGAACATT against PFKFB4, the median seed-adjusted z-score is inactive: 0.149.
The value for GGCUGAACCUGUAUGAGUUTT against PSMB3 was inactive: -0.725.
Turning to GGGUCAUGGUCACCGACUUTT against PCSK9, the median seed-adjusted z-score is inactive: 0.146.
With CCUCGACCACGAGCAGAAATT against PPP2R3B the figure was inactive: 0; with GAGAGUAAAUAUGCGAAUATT against ATP8B1, inactive: 0.357; with AGCUGACCGAGUUCCUGCATT against GAL3ST1, inactive: 0.263.
For the sequence GCUUUGACCGUGUCCGAAATT against STT3A, the median seed-adjusted z-score is inactive: 0.
The value for GAAGCACUAGUGAAGGUUATT against UGT8 was inactive: 0.
The value for GAGUCAGACGGAAUCGAAATT against CTSG was inactive: -0.47.
As to GAAGGAGACUUGGAACGCATT against TPM3, the median seed-adjusted z-score was inactive: 0.111.
With UGAAGUGGAUUUAACUAAATT against RAD52 the figure was inactive: -0.737.
With CGGAUAUUCCUGAACGCAATT against MARK3 the figure was inactive: 0.271; with GCUUGAAGUUAGUGAAUUATT against SLC37A3, inactive: 0.246.
For GAAACUCCCAUGUCUUAUATT against ZKSCAN3, the median seed-adjusted z-score was inactive: 0.
The value for CCAGACCACUUGCUAUGAATT against GATA6 was inactive: 0.546.
With CCAUGAUGAGUCUUCUGAATT against LPAR1 the figure was inactive: 0.514; with CUCCAAAUGUUGCGCUUGATT against PIK3CB, inactive: 0.0911.
The value for GCCGUGAUUUGGAAAGGAATT against CDC2L2 was inactive: 0.153.
Take GGAGUUCAUUCUCAACAGUTT against ACOX1: the median seed-adjusted z-score was inactive: -0.897.
On to CUCCCUCCCUCAAUAUUCATT against MDS1, for which the median seed-adjusted z-score is inactive: 0.0345.
Take CAAACGUAUUAGUUCAGCATT against KIF20B: the median seed-adjusted z-score is inactive: 0.
With GCUCAGUGACUGUUCGAGATT against TP53RK the figure was inactive: 0; with AGAGAUACUUCUUAAAUCATT against YAP1, inactive: -0.247; with GCAUCGAAGCCAUCAACGATT against GIPC3, inactive: -0.27.
Regarding GAAAGAUCUUUGCGGAAAATT against TOPORS, the median seed-adjusted z-score was inactive: 0.381.
The value for GAAUGGUCCUAUAUCUCAATT against LARP5 was inactive: -0.144.
With GAAAGUCCUUCAACCAGAATT against ZBTB34 the figure was inactive: 0.0298.
With GGAUGUGACAUGUUCGACUTT against QTRT1 the figure was inactive: 0.0708.
On to AGUUCAUCCGGGAUAAGUATT against PRPF31, for which the median seed-adjusted z-score was inactive: -0.592.
With GCCGAGUGUUGAAUCAGUATT against CYP4X1 the figure was inactive: 0.546.
With CCGUGAACCUAUUCUCAGATT against MYBBP1A the figure was inactive: 0.572; with CCAUUGCUUUGACGAAAGATT against HERC2, inactive: 0.98.
Take CGACUACUACUACCCUGAUTT against CCR8: the median seed-adjusted z-score was inactive: -0.206.
In the case of CCGUCUACGUGACCAUUGATT against ABCC1, the median seed-adjusted z-score was inactive: 0.
With GAAAGAUGGUUCUACCACATT against ACAA1 the figure was inactive: 0.384.
The value for CGGUGCCUGUUGUGAAAUATT against MYO1C was inactive: 0.566; that for GUAACUCCAUUGGACCACATT against NLRC3 was inactive: 0.323.
For CAGUGCCUCUACUACGUGATT against PREB, the median seed-adjusted z-score was inactive: 0.182.
In the case of ACAUCGUGCUUUACAACAATT against CHRNB4, the median seed-adjusted z-score was inactive: -0.317.
GGCGAUUUGUAAACCGAAUTT against NEDD4: the median seed-adjusted z-score was inactive: 0.454.
In the case of CAGAUUUUGUGAUCGAAUATT against PDILT, the median seed-adjusted z-score was inactive: -0.0994.
Take CGAUCUUGAUAAAGCCUAUTT against MPP5: the median seed-adjusted z-score is inactive: 0.429.
Turning to CCGUUGCUCAGAUAACUCATT against PHC2, the median seed-adjusted z-score was inactive: 0.177.
For GGACCUACGUUGCAGUUCATT against SUZ12, the median seed-adjusted z-score is active: -1.65.
Turning to GUAUGUCGGGUAUACCGUUTT against RAD54L2, the median seed-adjusted z-score was inactive: -0.0646.
With GGUUCACUGUGAUAUACAATT against METTL7A the figure was inactive: 0.278.
In the case of CGACUGCAAGGACAAAUCUTT against LDLR, the median seed-adjusted z-score is inactive: -0.142.
AAUCCACAAGAGUUACUAATT against ZNF410: the median seed-adjusted z-score is inactive: -0.135.
Take GUCUCCUACUGCACCAGAATT against RTN4R: the median seed-adjusted z-score is inactive: -0.536.
GACCAAGGCUUACUGAAUATT against GYG2: the median seed-adjusted z-score is inactive: 0.113.
